We go through one molecule from PMC13404287.

This test has as its target T1, Flt3-Flag (murine FLT3) (mouse) (UniProt Q00342).
T1 sequence: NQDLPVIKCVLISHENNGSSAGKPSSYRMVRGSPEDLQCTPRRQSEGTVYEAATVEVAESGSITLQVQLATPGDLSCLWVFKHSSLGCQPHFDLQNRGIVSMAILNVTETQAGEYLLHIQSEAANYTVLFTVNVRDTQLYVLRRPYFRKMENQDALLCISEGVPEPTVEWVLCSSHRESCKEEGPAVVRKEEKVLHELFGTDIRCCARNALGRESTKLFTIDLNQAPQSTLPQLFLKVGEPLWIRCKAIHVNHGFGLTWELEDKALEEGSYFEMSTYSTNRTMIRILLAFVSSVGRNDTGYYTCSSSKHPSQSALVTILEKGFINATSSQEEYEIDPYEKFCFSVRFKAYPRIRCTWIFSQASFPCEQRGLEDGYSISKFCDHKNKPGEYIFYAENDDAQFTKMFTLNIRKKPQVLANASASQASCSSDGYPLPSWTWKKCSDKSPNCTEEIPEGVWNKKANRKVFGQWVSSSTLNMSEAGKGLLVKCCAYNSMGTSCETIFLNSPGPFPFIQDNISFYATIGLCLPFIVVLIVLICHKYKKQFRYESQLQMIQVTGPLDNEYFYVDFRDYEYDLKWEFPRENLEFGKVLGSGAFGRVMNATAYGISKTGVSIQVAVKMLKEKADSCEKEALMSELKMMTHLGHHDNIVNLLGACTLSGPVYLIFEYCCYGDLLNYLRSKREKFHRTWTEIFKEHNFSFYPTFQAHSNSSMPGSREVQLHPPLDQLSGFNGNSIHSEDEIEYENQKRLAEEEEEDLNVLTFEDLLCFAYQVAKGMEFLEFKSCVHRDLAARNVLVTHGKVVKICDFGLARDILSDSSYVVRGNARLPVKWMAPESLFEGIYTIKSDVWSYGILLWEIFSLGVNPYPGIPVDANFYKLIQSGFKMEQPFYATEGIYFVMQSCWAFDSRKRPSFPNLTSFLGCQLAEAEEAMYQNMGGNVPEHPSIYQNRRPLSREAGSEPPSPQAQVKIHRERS
Nature of the test: co-IP; 293T cells co-expressing Flt3-Flag, Stat6-HA and Il4ra-Myc for 24 h; lysed in IP lysis buffer; Anti-Flag Magnetic Beads at 4 °C overnight; five washes; immunoblot.

These are yes or no findings as the source states them, for the method shown. In cells and extracts the contact can be indirect. Some entries that bind do so weakly or less than the wild type. Tags and fused reporters may be left off the sequences shown.

B1: Il4ra-Myc (IL-4Rα) (receptor, UniProt P16382 26-810)
chain: IKVLGEPTCFSDYIRTSTCEWFLDSAVDCSSQLCLHYRLMFFEFSENLTCIPRNSASTVCVCHMEMNRPVQSDRYQMELWAEHRQLWQGSFSPSGNVKPLAPDNLTLHTNVSDEWLLTWNNLYPSNNLLYKDLISMVNISREDNPAEFIVYNVTYKEPRLSFPINILMSGVYYTARVRVRSQILTGTWSEWSPSITWYNHFQLPLIQRLPLGVTISCLCIPLFCLFCYFSITKIKKIWWDQIPTPARSPLVAIIIQDAQVPLWDKQTRSQESTKYPHWKTCLDKLLPCLLKHRVKKKTDFPKAAPTKSLQSPGKAGWCPMEVSRTVLWPENVSVSVVRCMELFEAPVQNVEEEEDEIVKEDLSMSPENSGGCGFQESQADIMARLTENLFSDLLEAENGGLGQSALAESCSPLPSGSGQASVSWACLPMGPSEEATCQVTEQPSHPGPLSGSPAQSAPTLACTQVPLVLADNPAYRSFSDCCSPAPNPGELAPEQQQADHLEEEEPPSPADPHSSGPPMQPVESWEQILHMSVLQHGAAAGSTPAPAGGYQEFVQAVKQGAAQDPGVPGVRPSGDPGYKAFSSLLSSNGIRGDTAAAGTDDGHGGYKPFQNPVPNQSPSSVPLFTFGLDTELSPSPLNSDPPKSPPECLGLELGLKGGDWVKAPPPADQVPKPFGDDLGFGIVYSSLTCHLCGHLKQHHSQEEGGQSPIVASPGCGCCYDDRSPSLGSLSGALESCPEGIPPEANLMSAPKTPSNLSGEGKGPGHSPVPSQTTEVPVGALGIAVS
Regarding B1, the binding entry was “binds”.
